Laboratory results from doi:10.1101/2021.04.06.438596.
Results are given in words; binding and its absence hold for the method and conditions named. Some results given as binding are weak or reduced against the parent protein; the word gives no strength. For part of these data: Where a sequence is shown, tags or fusion partners need not be part of it.

How the values were obtained:
[1] = molecular target: T1, endogenous Sept7 (human (endogenous in U2OS, HeLa, RPE1, SKBr3)) (UniProt Q16181); assay: native gel or EMSA
T1 sequence: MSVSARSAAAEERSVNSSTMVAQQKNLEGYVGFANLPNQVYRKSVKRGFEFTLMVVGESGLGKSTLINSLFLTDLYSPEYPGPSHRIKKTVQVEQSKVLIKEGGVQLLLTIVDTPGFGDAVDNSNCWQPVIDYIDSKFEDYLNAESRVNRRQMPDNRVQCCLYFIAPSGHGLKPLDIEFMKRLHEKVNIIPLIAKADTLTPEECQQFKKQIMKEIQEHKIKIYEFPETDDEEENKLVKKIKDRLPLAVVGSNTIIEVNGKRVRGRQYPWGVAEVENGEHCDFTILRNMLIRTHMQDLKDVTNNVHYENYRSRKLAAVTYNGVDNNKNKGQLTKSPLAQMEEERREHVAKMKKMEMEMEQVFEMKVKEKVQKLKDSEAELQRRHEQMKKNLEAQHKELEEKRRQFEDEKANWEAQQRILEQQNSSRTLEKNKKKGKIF

[2] = molecular target: T2, wild type Sept9_i1-GFP (human), Q9UHD8; assay: native gel or EMSA; settings: remark: other sources report otherwise
T2 chain: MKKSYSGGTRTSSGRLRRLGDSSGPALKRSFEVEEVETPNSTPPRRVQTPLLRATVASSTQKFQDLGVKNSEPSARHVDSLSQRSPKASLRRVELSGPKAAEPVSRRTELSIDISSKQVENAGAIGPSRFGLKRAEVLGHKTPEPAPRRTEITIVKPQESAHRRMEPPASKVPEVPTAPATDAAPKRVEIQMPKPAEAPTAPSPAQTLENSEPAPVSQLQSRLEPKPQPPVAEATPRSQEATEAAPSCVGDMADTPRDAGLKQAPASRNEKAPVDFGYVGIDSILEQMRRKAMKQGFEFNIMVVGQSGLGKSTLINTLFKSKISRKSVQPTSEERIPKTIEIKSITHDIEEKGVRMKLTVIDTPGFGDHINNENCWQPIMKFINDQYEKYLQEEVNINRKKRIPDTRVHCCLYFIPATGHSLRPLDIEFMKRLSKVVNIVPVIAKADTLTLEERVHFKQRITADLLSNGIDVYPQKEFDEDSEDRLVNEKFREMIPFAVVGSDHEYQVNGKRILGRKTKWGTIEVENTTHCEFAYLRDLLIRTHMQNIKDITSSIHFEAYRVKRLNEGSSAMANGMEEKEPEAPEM

[3] = molecular target: T3, recombinant human Sept2 (human) (UniProt Q15019); assay: co-purification of a recombinant complex + native gel or EMSA
T3 sequence: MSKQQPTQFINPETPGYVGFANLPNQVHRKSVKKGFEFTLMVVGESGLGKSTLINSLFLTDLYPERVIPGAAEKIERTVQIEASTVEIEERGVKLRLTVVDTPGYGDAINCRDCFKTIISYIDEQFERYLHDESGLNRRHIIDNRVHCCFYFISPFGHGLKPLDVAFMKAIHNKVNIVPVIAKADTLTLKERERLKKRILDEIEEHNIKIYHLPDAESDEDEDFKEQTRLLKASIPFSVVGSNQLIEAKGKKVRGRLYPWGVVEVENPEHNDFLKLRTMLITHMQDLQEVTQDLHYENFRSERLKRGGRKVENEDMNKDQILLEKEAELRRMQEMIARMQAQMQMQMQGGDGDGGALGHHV

[4] = molecular target: T4, recombinant human Sept6 (human) (UniProt Q14141); assay: as above
T4 sequence: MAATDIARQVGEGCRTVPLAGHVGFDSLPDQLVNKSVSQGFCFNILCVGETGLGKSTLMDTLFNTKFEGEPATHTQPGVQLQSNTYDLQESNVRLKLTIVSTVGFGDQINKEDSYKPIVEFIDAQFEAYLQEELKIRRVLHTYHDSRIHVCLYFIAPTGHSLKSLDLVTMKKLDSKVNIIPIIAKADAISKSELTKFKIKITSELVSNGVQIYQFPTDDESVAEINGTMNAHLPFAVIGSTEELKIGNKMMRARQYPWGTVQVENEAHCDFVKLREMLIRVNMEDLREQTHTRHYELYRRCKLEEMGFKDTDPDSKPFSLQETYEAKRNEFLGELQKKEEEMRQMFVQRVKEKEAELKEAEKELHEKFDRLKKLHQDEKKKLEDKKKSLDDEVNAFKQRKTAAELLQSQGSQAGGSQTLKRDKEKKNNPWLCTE

[5] = molecular target: T5, recombinant human Sept7 (human) (UniProt Q16181); assay: as above
T5 sequence: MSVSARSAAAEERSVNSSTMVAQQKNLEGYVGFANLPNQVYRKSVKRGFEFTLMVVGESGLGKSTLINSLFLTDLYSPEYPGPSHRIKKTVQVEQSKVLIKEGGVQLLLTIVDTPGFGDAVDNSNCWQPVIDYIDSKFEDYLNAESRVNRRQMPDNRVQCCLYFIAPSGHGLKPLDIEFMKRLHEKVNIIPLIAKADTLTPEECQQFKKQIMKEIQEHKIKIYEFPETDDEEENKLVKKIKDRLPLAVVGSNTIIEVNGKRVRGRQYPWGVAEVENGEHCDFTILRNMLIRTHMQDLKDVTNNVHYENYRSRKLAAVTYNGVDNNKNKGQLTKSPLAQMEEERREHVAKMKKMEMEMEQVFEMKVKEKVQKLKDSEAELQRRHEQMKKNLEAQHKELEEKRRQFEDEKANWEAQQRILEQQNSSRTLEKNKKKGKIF

B1: endogenous Sept9 (long isoforms, detected with a pan Sept9 antibody) (protein, UniProt Q9UHD8 1-586)
chain: MKKSYSGGTRTSSGRLRRLGDSSGPALKRSFEVEEVETPNSTPPRRVQTPLLRATVASSTQKFQDLGVKNSEPSARHVDSLSQRSPKASLRRVELSGPKAAEPVSRRTELSIDISSKQVENAGAIGPSRFGLKRAEVLGHKTPEPAPRRTEITIVKPQESAHRRMEPPASKVPEVPTAPATDAAPKRVEIQMPKPAEAPTAPSPAQTLENSEPAPVSQLQSRLEPKPQPPVAEATPRSQEATEAAPSCVGDMADTPRDAGLKQAPASRNEKAPVDFGYVGIDSILEQMRRKAMKQGFEFNIMVVGQSGLGKSTLINTLFKSKISRKSVQPTSEERIPKTIEIKSITHDIEEKGVRMKLTVIDTPGFGDHINNENCWQPIMKFINDQYEKYLQEEVNINRKKRIPDTRVHCCLYFIPATGHSLRPLDIEFMKRLSKVVNIVPVIAKADTLTLEERVHFKQRITADLLSNGIDVYPQKEFDEDSEDRLVNEKFREMIPFAVVGSDHEYQVNGKRILGRKTKWGTIEVENTTHCEFAYLRDLLIRTHMQNIKDITSSIHFEAYRVKRLNEGSSAMANGMEEKEPEAPEM
[1]
  binding: binds

B2: endogenous Sept8 (protein, UniProt Q92599 1-483)
chain: MAATDLERFSNAEPEPRSLSLGGHVGFDSLPDQLVSKSVTQGFSFNILCVGETGIGKSTLMNTLFNTTFETEEASHHEACVRLRPQTYDLQESNVQLKLTIVDAVGFGDQINKDESYRPIVDYIDAQFENYLQEELKIRRSLFDYHDTRIHVCLYFITPTGHSLKSLDLVTMKKLDSKVNIIPIIAKADTISKSELHKFKIKIMGELVSNGVQIYQFPTDDEAVAEINAVMNAHLPFAVVGSTEEVKVGNKLVRARQYPWGVVQVENENHCDFVKLREMLIRVNMEDLREQTHSRHYELYRRCKLEEMGFQDSDGDSQPFSLQETYEAKRKEFLSELQRKEEEMRQMFVNKVKETELELKEKERELHEKFEHLKRVHQEEKRKVEEKRRELEEETNAFNRRKAAVEALQSQALHATSQQPLRKDKDKKNRSDIGAHQPGMSLSSSKVMMTKASVEPLNCSSWWPAIQCCSCLVRDATWREGFL
[1]
  binding: binds

B3: wild type Sept9_i1-GFP, Q9UHD8 1-586 (protein)
chain: MKKSYSGGTRTSSGRLRRLGDSSGPALKRSFEVEEVETPNSTPPRRVQTPLLRATVASSTQKFQDLGVKNSEPSARHVDSLSQRSPKASLRRVELSGPKAAEPVSRRTELSIDISSKQVENAGAIGPSRFGLKRAEVLGHKTPEPAPRRTEITIVKPQESAHRRMEPPASKVPEVPTAPATDAAPKRVEIQMPKPAEAPTAPSPAQTLENSEPAPVSQLQSRLEPKPQPPVAEATPRSQEATEAAPSCVGDMADTPRDAGLKQAPASRNEKAPVDFGYVGIDSILEQMRRKAMKQGFEFNIMVVGQSGLGKSTLINTLFKSKISRKSVQPTSEERIPKTIEIKSITHDIEEKGVRMKLTVIDTPGFGDHINNENCWQPIMKFINDQYEKYLQEEVNINRKKRIPDTRVHCCLYFIPATGHSLRPLDIEFMKRLSKVVNIVPVIAKADTLTLEERVHFKQRITADLLSNGIDVYPQKEFDEDSEDRLVNEKFREMIPFAVVGSDHEYQVNGKRILGRKTKWGTIEVENTTHCEFAYLRDLLIRTHMQNIKDITSSIHFEAYRVKRLNEGSSAMANGMEEKEPEAPEM
[2]
  binding: binds

B4: recombinant human Sept6 (protein, UniProt Q14141 1-434)
chain: MAATDIARQVGEGCRTVPLAGHVGFDSLPDQLVNKSVSQGFCFNILCVGETGLGKSTLMDTLFNTKFEGEPATHTQPGVQLQSNTYDLQESNVRLKLTIVSTVGFGDQINKEDSYKPIVEFIDAQFEAYLQEELKIRRVLHTYHDSRIHVCLYFIAPTGHSLKSLDLVTMKKLDSKVNIIPIIAKADAISKSELTKFKIKITSELVSNGVQIYQFPTDDESVAEINGTMNAHLPFAVIGSTEELKIGNKMMRARQYPWGTVQVENEAHCDFVKLREMLIRVNMEDLREQTHTRHYELYRRCKLEEMGFKDTDPDSKPFSLQETYEAKRNEFLGELQKKEEEMRQMFVQRVKEKEAELKEAEKELHEKFDRLKKLHQDEKKKLEDKKKSLDDEVNAFKQRKTAAELLQSQGSQAGGSQTLKRDKEKKNNPWLCTE
[3]
  binding: binds

B5: recombinant human Sept7 (protein, UniProt Q16181 1-437)
chain: MSVSARSAAAEERSVNSSTMVAQQKNLEGYVGFANLPNQVYRKSVKRGFEFTLMVVGESGLGKSTLINSLFLTDLYSPEYPGPSHRIKKTVQVEQSKVLIKEGGVQLLLTIVDTPGFGDAVDNSNCWQPVIDYIDSKFEDYLNAESRVNRRQMPDNRVQCCLYFIAPSGHGLKPLDIEFMKRLHEKVNIIPLIAKADTLTPEECQQFKKQIMKEIQEHKIKIYEFPETDDEEENKLVKKIKDRLPLAVVGSNTIIEVNGKRVRGRQYPWGVAEVENGEHCDFTILRNMLIRTHMQDLKDVTNNVHYENYRSRKLAAVTYNGVDNNKNKGQLTKSPLAQMEEERREHVAKMKKMEMEMEQVFEMKVKEKVQKLKDSEAELQRRHEQMKKNLEAQHKELEEKRRQFEDEKANWEAQQRILEQQNSSRTLEKNKKKGKIF
[4]
  binding: binds

B6: recombinant human Sept9_i1 (protein, UniProt Q9UHD8 1-586)
chain: MKKSYSGGTRTSSGRLRRLGDSSGPALKRSFEVEEVETPNSTPPRRVQTPLLRATVASSTQKFQDLGVKNSEPSARHVDSLSQRSPKASLRRVELSGPKAAEPVSRRTELSIDISSKQVENAGAIGPSRFGLKRAEVLGHKTPEPAPRRTEITIVKPQESAHRRMEPPASKVPEVPTAPATDAAPKRVEIQMPKPAEAPTAPSPAQTLENSEPAPVSQLQSRLEPKPQPPVAEATPRSQEATEAAPSCVGDMADTPRDAGLKQAPASRNEKAPVDFGYVGIDSILEQMRRKAMKQGFEFNIMVVGQSGLGKSTLINTLFKSKISRKSVQPTSEERIPKTIEIKSITHDIEEKGVRMKLTVIDTPGFGDHINNENCWQPIMKFINDQYEKYLQEEVNINRKKRIPDTRVHCCLYFIPATGHSLRPLDIEFMKRLSKVVNIVPVIAKADTLTLEERVHFKQRITADLLSNGIDVYPQKEFDEDSEDRLVNEKFREMIPFAVVGSDHEYQVNGKRILGRKTKWGTIEVENTTHCEFAYLRDLLIRTHMQNIKDITSSIHFEAYRVKRLNEGSSAMANGMEEKEPEAPEM
[5]
  binding: binds
